# Assay: Metabolite analysis of lens fractions from young and senior dogs
# Parameters: species or system dog
# Settings: for Fold Change In Polyamines In Young Vs. Old Dog Lens Fractions, Nucleus: Young Vs. Old Canine: inner nuclear lens layer; for Fold Change In Polyamines In Young Vs. Old Dog Lens Fractions, Nucleus: Young Vs. Old Canine / Fold Change In Polyamines In Young Vs. Old Dog Lens Fractions, Epithelial/Cortical: Young Vs. Old Canine: young (2-3 years old) vs senior (10+ years old) dogs; for Fold Change In Polyamines In Young Vs. Old Dog Lens Fractions, Epithelial/Cortical: Young Vs. Old Canine: outer epithelial/cortical lens layer; for Amount of polyamine in young dog lenses compared to senior dog lenses (in words): young vs senior dog lenses
structure (smiles),measurement,value
"NCCCCNCCCN [Spermidine, spermidine]","Fold Change In Polyamines In Young Vs. Old Dog Lens Fractions, Nucleus: Young Vs. Old Canine",1.71
same,"Fold Change In Polyamines In Young Vs. Old Dog Lens Fractions, Epithelial/Cortical: Young Vs. Old Canine",1.79
same,Amount of polyamine in young dog lenses compared to senior dog lenses (in words),higher in the young dog lenses
"NCCCCN [Putrescine, putrescine]","Fold Change In Polyamines In Young Vs. Old Dog Lens Fractions, Nucleus: Young Vs. Old Canine",1
same,"Fold Change In Polyamines In Young Vs. Old Dog Lens Fractions, Epithelial/Cortical: Young Vs. Old Canine",1.45
same,Amount of polyamine in young dog lenses compared to senior dog lenses (in words),higher in the young dog lenses
"NCCCNCCCCNCCCN [Spermine, spermine]","Fold Change In Polyamines In Young Vs. Old Dog Lens Fractions, Nucleus: Young Vs. Old Canine",1
same,"Fold Change In Polyamines In Young Vs. Old Dog Lens Fractions, Epithelial/Cortical: Young Vs. Old Canine",2.78
same,Amount of polyamine in young dog lenses compared to senior dog lenses (in words),higher in the young dog lenses

# — patent publication US20140107218A1, “METHODS FOR MAINTAINING EYE HEALTH AND AMELIORATING OPTHALMIC MALADIES IN ANIMALS” (NESTEC SA, priority 2012, published 2014)
